Test [1] concerns the target T1, GST-SH3 of Amphiphysin II (UniProt O00499 520-593).
T1 construct: Amphiphysin II, SH3 domain; cloned into the SalI and BglII sites of pYEX (modified pGEX-2TK); also called AmphIISH3; GST-Amphiphysin II SH3; source: expressed in bacteria; on glutathione-Sepharose 4B beads (pull-down) or purified (peptide arrays)
T1 sequence (looked up): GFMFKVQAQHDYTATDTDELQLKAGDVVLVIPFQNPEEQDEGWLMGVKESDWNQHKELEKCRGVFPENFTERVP
The test can be described thus: pull-down; GST or GST fusion proteins (100 μg) adsorbed to glutathione-sepharose 4B beads, two hours at 4°C with 1 mg of HEK293 cellular extract in JS lysis buffer (50 mM Hepes, 150 mM NaCl, 1% Triton-X100); washed three times in ice-cold PBS; Western blot; only the target purified. A general note: A western blot detects proteins with antibodies after separation by electrophoresis.

The target in another test is T2, GST-14-3-3 η (human) (UniProt Q04917).
T2 sequence: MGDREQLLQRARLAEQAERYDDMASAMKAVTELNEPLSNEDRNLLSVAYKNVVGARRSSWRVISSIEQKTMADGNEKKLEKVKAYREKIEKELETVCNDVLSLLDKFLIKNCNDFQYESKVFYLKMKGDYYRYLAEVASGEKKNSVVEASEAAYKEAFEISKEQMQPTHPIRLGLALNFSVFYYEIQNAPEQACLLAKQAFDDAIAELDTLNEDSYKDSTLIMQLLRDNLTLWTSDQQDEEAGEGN
The test is described as above.

In test [2] the target is T3, Amphiphysin II-FLAG (full length) (UniProt O00499).
T3 sequence: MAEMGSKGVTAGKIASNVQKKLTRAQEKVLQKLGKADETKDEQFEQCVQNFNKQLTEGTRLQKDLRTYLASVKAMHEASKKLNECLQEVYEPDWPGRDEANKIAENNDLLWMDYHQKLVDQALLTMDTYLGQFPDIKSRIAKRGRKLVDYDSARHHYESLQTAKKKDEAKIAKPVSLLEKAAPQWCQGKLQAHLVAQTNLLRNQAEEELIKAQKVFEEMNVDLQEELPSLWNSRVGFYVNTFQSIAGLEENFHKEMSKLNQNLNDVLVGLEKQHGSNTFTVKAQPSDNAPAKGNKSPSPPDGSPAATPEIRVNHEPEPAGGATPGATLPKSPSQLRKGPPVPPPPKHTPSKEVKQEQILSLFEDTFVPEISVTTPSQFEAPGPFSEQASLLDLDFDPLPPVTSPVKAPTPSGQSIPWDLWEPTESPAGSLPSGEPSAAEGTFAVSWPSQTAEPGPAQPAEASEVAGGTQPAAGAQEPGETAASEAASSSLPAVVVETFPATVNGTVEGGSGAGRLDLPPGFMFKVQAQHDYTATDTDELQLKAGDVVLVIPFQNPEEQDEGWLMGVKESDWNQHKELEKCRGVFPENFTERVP
The test can be described thus: co-IP; transfected HEK293 cells lysed in JS buffer; anti-FLAG M2 affinity gel, anti-HA or anti-Myc antibody, 2 hours at 4°C; washed in NET buffer; Western blot.

Test [3] has as its target T4, positive control phospho-peptide RRHRsAPGVR.
T4 sequence (peptide, phosphorylated serine ('s', fifth residue)): RRHRSAPGVR
The test can be described thus: peptide or protein array; SPOT peptides on a cellulose membrane; GST fusion proteins (10 micrograms/ml) in PBS/BSA 5%; anti-GST antibody, peroxidase labeled secondary antibody, chemiluminescence in arbitrary units; both purified.

The target in test [4] is T5, positive control phospho-peptide RRSRsFPVTF.
T5 sequence (peptide, phosphorylated serine ('s', fifth residue)): RRSRSFPVTF
Described as above.

Test [5] deals with T6, positive control phospho-peptide RRFRsLPAAH.
T6 sequence (peptide, phosphorylated serine ('s', fifth residue)): RRFRSLPAAH
Described as above.

Test [6] addresses T7, POB1 fifteenmer peptide 338…352 (human).
T7 sequence (peptide): PPTPPPRPQKTHSRA
The description is as above.

Test [7] has as its target GST-POB1 PRD1 (POB1 central region from Pro308 to Val365 as a GST fusion) (human). The test can be described thus: affinity selection of a phage-displayed cDNA library; GST-POB1 PRD1 immobilized on glutathione-sepharose as bait; human brain cDNA library displayed on lambda phage; selected clones sequenced; only the target purified.

These are yes or no findings as the source states them, for the method shown. Binding can be weak; no strength is given. For part of these data: In cells and extracts the contact can be indirect. For part of these data: Sequences can lack the tags named with a protein.

For the molecule “GFP-POB1 PRD1 (308-365) (human) (domain or fragment)”, the binding result in test [1] is recorded as “binds”.
As to GFP-POB1 full length (1-521) (human), the binding result (in test [1]; with GST-14-3-3 η (human); in test [2]) was “binds” in each case.
Take GST-14-3-3 sigma (human): the binding entry in test [3], in test [4] and in test [5] was “binds” throughout.
As for “GST-SH3 carboxy-terminal of Grb2 (domain or fragment)”, in test [6], the binding entry is recorded as “binds”.

B1: Src homology 3 domain (SH3) of Amphiphysin II displayed on lambda phage (domain or fragment, UniProt O00499 520-593)
chain: GFMFKVQAQHDYTATDTDELQLKAGDVVLVIPFQNPEEQDEGWLMGVKESDWNQHKELEKCRGVFPENFTERVP
Take B1: the binding entry in test [7] was “binds”.

The record behind these values is paper PMC2494995, “The central proline rich region of POB1/REPS2 plays a regulatory role in epidermal growth factor receptor endocytosis by binding to 14-3-3 and SH3 domain-containing proteins” (BMC Biochemistry, 2008).
